Data: patent publication US20220372014A1, “NEUROPROTECTIVE COMPOUNDS AND METHODS OF USE THEREOF” (The Johns Hopkins University, priority 2019, published 2022)
For part of these data: Construct, isoform or probe ends are uncertain for at least one entry.

By UniProt entry, the sequences of proteins in these tests, tags left out. Where a name states a change or a piece, a line headed by the entry shows the natural chain unless it says otherwise.
UniProt P14174: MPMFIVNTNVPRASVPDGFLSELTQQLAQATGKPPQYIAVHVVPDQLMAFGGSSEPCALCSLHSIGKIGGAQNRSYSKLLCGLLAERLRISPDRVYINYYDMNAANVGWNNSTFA

What was measured:
[1] = target: PAAN/MIF (macrophage migration inhibitory factor) (Homo sapiens) (UniProt P14174); assay: enzyme reaction in vitro; settings: purified recombinant protein, single-stranded DNA
[2] = target: PAAN/MIF (macrophage migration inhibitory factor) (Homo sapiens) (UniProt P14174); assay: EMSA; settings: 2 uM MIF, 10 nM biotin-DNA, 10 mM MgCl2, on ice; effect of compound 121 on binding tested; PS30 sequence assigned from listing SEQ 1; purified recombinant protein; label: biotin (EMSA); single-stranded DNA

| Sequence | activity on this sequence ([1]; 4 uM MIF, 1 uM DNA, 10 mM Tris-Cl pH 7.0, 10 mM MgCl2, 37 C 1 h, label: biotin (EMSA)) | binding result [2] | activity on this sequence ([1]; 5'-NH2, 4-8 uM MIF, 10 mM Tris-Cl pH 7.0, 10 mM MgCl2, 1 h, inhibited by compounds such as 56 and 121) |
| --- | --- | --- | --- |
| CTCAGCCTCCCAAGTAGCTGGGATTACAGG [PS30] | active | binds | – |
| TCCCAAGTAGCTGGGATTACAGGAAAAAA [RF substrate] | – | – | active |
